Data published in PubChem BioAssay AID1671190 (National Center for Advancing Translational Sciences (NCATS), 2021).
Hit rate of the full screen: of about 580,000 compounds, about 6,100 (1.1%) were called active. This list was built around the results that the source calls inconclusive (neither active nor inactive); the mix of calls is not that of the screen. Calls follow the shape of the dose curve; as a rule, active = well fitted inhibition curve with a large enough effect; inconclusive = small, poorly fitted or top-dose-only effect, or another doubt; inactive = no such curve, though single readings can be large or run the other way. A potency beside an inconclusive call is a rough fit, not a confirmed value.

Sequences of proteins named here, by UniProt entry; tags and fusion partners are left off. A change or cut given only in a name is not applied to a line headed by its entry.
UniProt P18054: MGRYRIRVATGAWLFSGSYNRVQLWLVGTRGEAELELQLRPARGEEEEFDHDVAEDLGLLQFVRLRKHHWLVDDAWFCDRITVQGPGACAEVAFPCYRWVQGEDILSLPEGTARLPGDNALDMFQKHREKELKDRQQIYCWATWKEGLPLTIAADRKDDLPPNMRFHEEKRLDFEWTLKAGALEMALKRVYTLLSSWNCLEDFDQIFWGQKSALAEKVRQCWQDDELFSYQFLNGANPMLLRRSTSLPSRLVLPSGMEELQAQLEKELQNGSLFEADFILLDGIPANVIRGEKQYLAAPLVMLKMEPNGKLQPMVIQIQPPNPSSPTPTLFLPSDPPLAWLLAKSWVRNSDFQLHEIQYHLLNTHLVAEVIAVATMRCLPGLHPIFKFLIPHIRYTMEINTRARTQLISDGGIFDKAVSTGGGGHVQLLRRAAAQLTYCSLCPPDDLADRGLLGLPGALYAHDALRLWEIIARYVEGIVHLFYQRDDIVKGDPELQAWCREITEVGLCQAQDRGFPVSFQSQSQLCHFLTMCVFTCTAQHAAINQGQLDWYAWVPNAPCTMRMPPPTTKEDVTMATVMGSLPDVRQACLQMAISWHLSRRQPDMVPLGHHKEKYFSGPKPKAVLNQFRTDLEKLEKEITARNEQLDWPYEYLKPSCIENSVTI

Biological target: Polyunsaturated fatty acid lipoxygenase ALOX12 (Homo sapiens) (UniProt P18054)
Assay: Primary qHTS assay for inhibitors of human arachidonate 12S-lipoxygenase (ALOX12): Round 2
Settings: purified 12hLO, xylenol orange hydroperoxide absorbance; activity change, negative = inhibition: at 108 µM (top of the series) unless noted
Procedure, shortened: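 Purified human 12hLO (150 nM final) in 25 mM Hepes, 0.01% Triton X-100, pH 7.0 was preincubated 15 min at room temperature with compound. Then 40 uM arachidonic acid was added, 30 min. Hydroperoxide was read by Fe-XO absorbance ratio 573/405 nm.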
% is scaled to controls: 0 for no effect and ±100 for the full control effect; potency is read from the fitted curve at half-maximal effect.

| Structure (SMILES) | Potency | activity change, negative = inhibition |
| --- | --- | --- |
| COc1ccc(NC(=O)c2ccncc2)cc1S(=O)(=O)N1CCCCC1 | inconclusive: 44.7 µM [inhibitor, partial curve, poor fit] |  |
| N#Cc1nc(-c2cccs2)oc1NCCN1CCCCC1 | inconclusive: 44.7 µM [inhibitor, partial curve, poor fit] |  |
| Cc1ccc(/C([O-])=C(/C(=S)Nc2ccc(SC(F)F)cc2)[n+]2ccccc2)cc1[N+](=O)[O-] | inconclusive: 50.1 µM [inhibitor, partial curve, poor fit] |  |
| N#C/C(=C/c1ccc(O)cc1)c1nc(C2CC2)cs1 | inconclusive: 50.1 µM [inhibitor, partial curve, poor fit] |  |
| CN1CCN(CCNC(=O)CC2CCN(C(=O)c3cc4ccccc4[nH]3)CC2)CC1 | inactive |  |
| O=C(NCc1ccc(Cl)cc1)c1cc(-c2ccc[nH]2)n[nH]1 | active: 31.6 µM |  |
| N#Cc1c(-n2ncnc2-c2ccccc2C(F)(F)F)sc2c1CCCCC2 | inconclusive: 50.1 µM [inhibitor, partial curve, poor fit] |  |
| NC(=O)C1CCN([C@H]2[C@@H]3OC[C@@H](O3)[C@@H](NCc3ccc(F)cc3)[C@@H]2O)CC1 | inactive |  |
| Nc1c(C(=O)Nc2ccc(S(=O)(=O)N3CCCC3)cc2)sc2nc3cc4c(cc3cc12)CCC4 | inconclusive: 44.7 µM [inhibitor, partial curve] |  |
| N/C(Cc1ccc(Cl)cc1Cl)=N\OC(=O)c1ccc(Br)o1 | inconclusive: 31.6 µM [inhibitor, single point] |  |
| CCN(CC)C(=O)C1=C(C)N(Cc2ccc(C(C)(C)C)cc2)C(=O)C(CC(=O)NCc2ccco2)C1 (centres undefined) | inconclusive: 112 µM [inhibitor, single point] |  |
| Cc1ccccc1OCCSC(C)C(=O)NC(C)(C)C (centres undefined) | inactive |  |
| CN1CC(=O)N(C2CCCNCC2)Cc2c1ncnc2N1CCC(N2CCCCC2)CC1 (centres undefined) | inconclusive: 7.94 µM [inhibitor, full curve] |  |
| COc1cccc(C(=O)Oc2cc(C)[nH]c(=O)c2[N+](=O)[O-])c1OC | inconclusive: 5.62 µM [inhibitor, full curve, poor fit] |  |
| O=c1[nH]c(C2CCCN(CC3CC3)C2)nn1-c1ccccc1 (centres undefined) | inconclusive: 20 µM [inhibitor, full curve] |  |
| CCNc1cc(C)nc(Nc2ccc(NS(=O)(=O)c3ccc(Cl)cc3)cc2)n1 | inconclusive: 44.7 µM [inhibitor, partial curve, poor fit] |  |
| COc1ccc([C@@H]2CC(=O)c3c(O)cc(O[C@@H]4OC(CO[C@@H]5OC(C)[C@H](O)[C@@H](O)[C@H]5O)[C@@H](O)[C@H](O)[C@H]4O)cc3O2)cc1O (some centres undefined) | inconclusive: 44.7 µM [inhibitor, partial curve, poor fit] |  |
| O=C(Nc1cccc(S(=O)(=O)Nc2ccccc2F)c1)c1ccc2ccccc2n1 | inconclusive: 20 µM [inhibitor, partial curve] |  |
| O=C(CC1N=C2c3ccccc3N=C(SCc3ccc(F)cc3)N2C1=O)NCc1ccc2c(c1)OCO2 (centres undefined) | inconclusive: 28.2 µM [inhibitor, partial curve, poor fit] |  |
| CC(=O)NC(C)c1ccc(C(=O)CSc2cc(Cl)ccc2Cl)cc1 (centres undefined) | inconclusive: 44.7 µM [inhibitor, partial curve, poor fit] |  |
| COC(=O)COc1ccc2c(=O)c(Oc3cc(C)ccc3C)coc2c1 | inactive |  |
| CSc1cccc(NC(=O)c2ccc3c(c2)N(C)C2CCCN2C3=O)c1 (centres undefined) | inconclusive: 44.7 µM [inhibitor, partial curve] |  |

| Structure (SMILES) | Potency | activity change, negative = inhibition |
| --- | --- | --- |
| COc1ccc(-c2sc3ccc(N4CCOCC4)cc3c2-c2ccc(OC)c(F)c2)cc1 | inconclusive: 22.4 µM [inhibitor, partial curve, poor fit] |  |
| COc1cccc(Cn2c(=O)c(-c3ccc(Cl)cc3)nc3cnc(OC)nc32)c1 | inconclusive: 35.5 µM [inhibitor, partial curve, poor fit] |  |
| Cc1occc1-c1nnc(SC(C(=O)Nc2cccc(C(F)(F)F)c2)c2ccccc2)o1 (centres undefined) | inconclusive: 56.2 µM [inhibitor, partial curve, poor fit] |  |
| Cc1cc(C)cc(C(=O)NCC(=O)OCC(=O)Nc2cccnc2Cl)c1 | inconclusive: 4.47 µM [inhibitor, full curve, poor fit] |  |
| COc1ccc2c(C)c(CCC(=O)Nc3ccccc3F)c(=O)oc2c1 | inactive |  |
| CCCCCSc1nc2c(c(=O)[nH]c(=O)n2C)n1Cc1ccccc1Cl | inactive |  |
| CC(=O)Nc1nc2cc3c(cc2s1)OCCO3 | inactive |  |
| CN(C)c1ccc(C2CC(c3cccc(NS(C)(=O)=O)c3)=NN2C(=O)c2ccccc2)cc1 (centres undefined) | active: 28.2 µM |  |
| CCOc1ccc2c(n1)CCN(C(=O)Cc1c(C)noc1C)C2 | inactive |  |
| CCCNC(=O)N1CCC(c2noc(COc3ccc(C)cc3)n2)CC1 | inactive |  |
| CC(C)(C)c1ccc(-c2ccc3c(c2)S(=O)(=O)c2ccccc2C3=O)cc1 | inactive |  |
| Cc1nc2nc(-c3ccccc3)cc(=O)n2[nH]1 | inconclusive: 50.1 µM [inhibitor, partial curve, poor fit] |  |
| CCC(C)c1ccc2oc(-c3ccc(NC(=O)c4cc5ccccc5o4)cc3)nc2c1 (centres undefined) | inconclusive: 158 µM [inhibitor, partial curve, poor fit] |  |
| CC(C)CC(c1nnnn1C(C)(C)C)N1CCN(C2CCCC2)CC1 (centres undefined) | inconclusive: 39.8 µM [inhibitor, partial curve, poor fit] |  |
| N#CC1(NC(=O)COc2ccc3ccc(=O)oc3c2)CCCCC1 | inactive |  |
| O=[N+]([O-])c1ccc(CSc2nnc(Cc3ccccc3)n2-c2ccc(F)cc2)cc1 | inconclusive: 79.4 µM [inhibitor, partial curve, poor fit] |  |
| CCOc1ccc(CN2CCC(N3CCOCC3)CC2)cc1 | inconclusive: 0.501 µM [inhibitor, full curve, poor fit] |  |
| COC(=O)c1ccc(NC(=O)CSc2nc3ncccc3[nH]2)cc1 | inactive |  |
| CC1(C)CC(NC(=S)Nc2ccc(SC(F)F)cc2)CC(C)(C)N1 | inconclusive: 56.2 µM [inhibitor, partial curve, poor fit] |  |
| c1cc(-c2nc3ccncc3[nH]2)ccn1 | inconclusive: 22.4 µM [inhibitor, full curve, poor fit] |  |
| Cc1ccc(CNC(=O)c2cc3cc(C)ccc3[nH]2)cc1 | inconclusive: 22.4 µM [inhibitor, partial curve] |  |
| O=C(Cc1ccc([N+](=O)[O-])cc1)NNC(=O)c1cccs1 | inconclusive: 39.8 µM [inhibitor, partial curve, poor fit] |  |

| Structure (SMILES) | Potency | activity change, negative = inhibition |
| --- | --- | --- |
| Cc1ccc(N2C(N)=C(C#N)C(c3cccs3)C3=C2CC(C)(C)CC3=O)cc1 (centres undefined) | inconclusive: 25.1 µM [inhibitor, partial curve, poor fit] |  |
| CSCCC(NS(=O)(=O)c1ccc2c(c1)oc(=O)n2C)C(=O)Nc1ccc(C)c(F)c1 (centres undefined) | inactive |  |
| NN=C(NN=Cc1ccccc1)c1ccccc1 | inconclusive: 7.94 µM [inhibitor, partial curve, poor fit] |  |
| O=C(c1ccccc1F)N1CCN(C2CCC(c3ccccc3)CC2)CC1 (centres undefined) | inconclusive: 10 µM [inhibitor, full curve, poor fit] |  |
| Cc1ccc(-c2nc3c(C)cc(Br)cn3c2Cc2ccsc2)cc1 | inconclusive: 39.8 µM [inhibitor, partial curve, poor fit] |  |
| CC1(C(=O)NS(C)(=O)=O)CCN1C(=O)C/C=C/c1ccccc1 (centres undefined) | inconclusive: 11.2 µM [inhibitor, full curve, poor fit] |  |
| COc1ccc(S(=O)(=O)Nc2ccc3c(c2)N(C(=O)c2cccnc2)CC3)c(OC)c1 | inconclusive: 79.4 µM [inhibitor, single point] |  |
| COc1ccccc1Nc1nc(-c2ccccc2F)nc2ccccc12 | inconclusive: 126 µM [inhibitor, partial curve, poor fit] |  |
| CCN1CCCC(OC(=O)c2cc(-c3ccc(C)cc3)nc3ccccc23)C1 (centres undefined) | inconclusive: 15.8 µM [inhibitor, full curve] |  |
| O=C(CSc1nnc(-c2ccco2)n1Cc1ccco1)NCc1cccs1 | inactive |  |
| Cc1ccc(N2CCN(C(=O)N3CCOCC3)CC2)cc1C | inactive |  |
| CNc1ncncc1-c1ccc(C(=O)N(C)C)cc1 | active: 31.6 µM |  |
| C[C@H](NC(=O)C1CC(=O)N(c2ccc3c(c2)OCO3)C1)C(=O)NC1CCCC1 (some centres undefined) | inactive |  |
| CCOc1ccccc1NC(=O)CSc1nncc2ccccc12 | inactive |  |
| O=C(O)c1cc(O)c2c(c1)[C@H]([C@H]1c3cc(C(=O)O)cc(O)c3C(=O)c3c(O[C@@H]4O[C@H](CO)[C@@H](O)[C@H](O)[C@H]4O)cccc31)c1cccc(OC3O[C@H](CO)[C@@H](O)[C@H](O)[C@H]3O)c1C2=O (some centres undefined) | inconclusive: 0.794 µM [inhibitor, full curve, poor fit] |  |
| O=C(Oc1coc(CSc2nnc(NC(=O)C3CC3)s2)cc1=O)c1ccccc1 | inactive |  |
| COc1ccc(OC)c(S(=O)(=O)Nc2ccc3oc4c(c3c2)C(=O)CCC4)c1 |  | inconclusive: -44.7% [inhibitor] |
| Cc1ccccc1S(=O)(=O)NCc1cccnc1 | inactive |  |
| Cc1ccc(-c2cc(C(=O)Nc3c(C)n(C)n(-c4ccccc4)c3=O)[nH]n2)c(O)c1 |  | inconclusive: -30.6% [inhibitor] |
| O=C(COc1ccc(F)cc1F)Nc1cccnc1 | inconclusive: 39.8 µM [inhibitor, partial curve, poor fit] |  |

Five structures out of the list, ordered by formula weight, ascending.

| Structure (SMILES) | Potency | activity change, negative = inhibition |
| --- | --- | --- |
| CCCNC(=O)N1CCC(c2noc(COc3ccc(C)cc3)n2)CC1 | inactive |  |
| CCN1CCCC(OC(=O)c2cc(-c3ccc(C)cc3)nc3ccccc23)C1 (centres undefined) | inconclusive: 15.8 µM [inhibitor, full curve] |  |
| CN1CC(=O)N(C2CCCNCC2)Cc2c1ncnc2N1CCC(N2CCCCC2)CC1 (centres undefined) | inconclusive: 7.94 µM [inhibitor, full curve] |  |
| COc1ccc(-c2sc3ccc(N4CCOCC4)cc3c2-c2ccc(OC)c(F)c2)cc1 | inconclusive: 22.4 µM [inhibitor, partial curve, poor fit] |  |
| CCN(CC)C(=O)C1=C(C)N(Cc2ccc(C(C)(C)C)cc2)C(=O)C(CC(=O)NCc2ccco2)C1 (centres undefined) | inconclusive: 112 µM [inhibitor, single point] |  |
